Test results taken from PubChem BioAssay AID2685 (National Center for Advancing Translational Sciences (NCATS), 2010).
Out of some 320,000 compounds screened, about 2,100 (0.66%) were called active. Inconclusive results, whose numbers are uncertain, are shown with a selection of clear calls. Calls come from the whole dose curve; as a rule, active = well fitted inhibition curve with a large enough effect in the signal ratio, with a control signal flat (not every such curve was filed as active); inconclusive = small, poorly fitted or top-dose-only effect, or effect the other way, or a change in a side signal; inactive = flat fitted curve, though single readings scatter; the % refers to the signal ratio. Potencies of inconclusive entries are doubtful fits and often do not repeat.

test: qHTS Assay for Lipid Storage Modulators in Drosophila S3 Cells; conditions: BODIPY lipid droplet fluorescence, 18-24 h, cells fed with added oleic acid; lipid storage change, negative = inhibition: at 46.1 µM (top of the series) unless noted
Method in brief: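 Drosophila S3 cells got compounds at several concentrations plus oleic acid (400 uM solution). Laser-scanning cytometry with 488 nm excitation read lipid droplets at 500-530 nm and cells at 575-640 nm. Percent activity was relative to 20 uM Triacsin C.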
% is set by controls: 0 for no effect and ±100 for the full control effect; potency is the fitted concentration of half-maximal effect.

Structure (SMILES)	lipid storage change, negative = inhibition	Potency	outcome
O=S(=O)(Nc1nc2ccccc2nc1NCC1CCCO1)c1ccccc1 (configuration not stated)	inconclusive: 19.2%		
Cc1ccc(C)c(N2N=C(C(=O)OCc3nnc(-c4cccs4)o3)CCC2=O)c1	inconclusive		
COc1cc(/C=C/C(=O)OCC(=O)NC(=O)NC2CCCCC2)ccc1OC(F)F	inconclusive: -22.9%		
CCOC(=O)c1nnc2cc(-c3ccc(Br)cc3)nn2c1C		inconclusive: 0.164 µM [activator, partial curve, poor fit]	
O=C(O)C1CC(=O)N(Cc2ccc(F)cc2)C1 (configuration not stated)		inconclusive: 23.1 µM [falling, single point]	
Cc1csc2nc(CNS(=O)(=O)N(C)C)cn12	inconclusive: 1.64%		
CC(C)(C)OC(=O)NCCCC[C@H](NC(=O)c1[nH]cnc1C(=O)Nc1ccccc1)C(=O)OC(C)(C)C	inconclusive: -1.77%		
COc1ccc(C(=O)NCC2CCCO2)cc1 (configuration not stated)	inconclusive: 7.45%		
CN(C)c1ccc(C2N(C)C(=O)c3ccccc3N2C)cc1 (configuration not stated)	inconclusive: -50.4%		
COc1cc(Br)cc2cc(C(=O)N3CCOCC3)c(=O)oc12	inconclusive: 25.3%		
COC(=O)C1CCN(C(=O)Nc2ccccc2)CC1	inconclusive: 26.6%		
C=CCOc1ccc(/C=C\c2nc(O)c([N+](=O)[O-])c(=O)[nH]2)cc1OC		inconclusive: 8.2 µM [falling, partial curve, poor fit]	
COc1cccc(OC)c1C(=O)Nc1nnc(-c2ccc(F)cc2)s1	inconclusive: -20.8%		
COc1cc(C(c2c(C)[nH][nH]c2=O)c2c(C)[nH][nH]c2=O)ccc1OC(C)C		inconclusive: 23.1 µM [falling, single point]	
Cc1ccc(C(=O)COC(=O)C2CC3CCCC(C2)C3=O)cc1[N+](=O)[O-] (configuration not stated)	inconclusive		
Cc1ccc(CNC(=O)CCS(=O)(=O)c2cc3c(cc2C)NC(=O)CO3)cc1		inconclusive: 0.0046 µM [activator, full curve, poor fit]	
CCOc1ccc(-c2nnn(CC(=O)c3cc(OC)ccc3OC)n2)cc1		inconclusive: 9.2 µM [rising, partial curve]	
CC(C)OC(=O)c1cc2c(ccn2C)n1CC(=O)N(Cc1ccccc1)c1ccc(F)cc1		inconclusive: 29.1 µM [falling, single point]	
CCOC(=O)C1=C(C)NC2=C(C(=O)CC(C)(C)C2)C1c1ccc(O)c(OCC)c1 (configuration not stated)	inconclusive: -4.72%		
C=CCC(C(=O)OC)(C(=O)OC)c1ccc(C(F)(F)F)cc1[N+](=O)[O-]	inconclusive: -40.1%		
O=C(COc1ccc(Cl)cc1)NCCCn1ccnc1	inconclusive: -22.8%		
Cn1nc(C(=O)NCc2cccnc2)c2ccccc2c1=O	inconclusive: 52.9%		
Cc1ccc(CN2CCCN(Cc3c(C)cc(C)cc3C)S2(=O)=O)cc1	inconclusive: 16.1%		
COC(=O)c1sc(NC(=O)CSc2nc3cccnc3n2C2CCCCC2)nc1C		inconclusive: 3.26 µM [activator, single point]	
Cc1cccc(-c2noc(Cc3ccc(Cl)cc3)n2)c1		inconclusive: 5.17 µM [activator, partial curve]	
COc1ccc(C(=O)N/C(=C\c2cccs2)c2nc3ccccc3[nH]2)cc1OC	inconclusive: -11.8%		

Entries above with a Cl atom:
Structure (SMILES)	lipid storage change, negative = inhibition	Potency	outcome
O=C(COc1ccc(Cl)cc1)NCCCn1ccnc1	inconclusive: -22.8%		
Cc1cccc(-c2noc(Cc3ccc(Cl)cc3)n2)c1		inconclusive: 5.17 µM [activator, partial curve]	

3 compounds out of the list, ordered by molecular weight, ascending:
Structure (SMILES)	lipid storage change, negative = inhibition	Potency	outcome
O=C(O)C1CC(=O)N(Cc2ccc(F)cc2)C1 (configuration not stated)		inconclusive: 23.1 µM [falling, single point]	
COC(=O)c1sc(NC(=O)CSc2nc3cccnc3n2C2CCCCC2)nc1C		inconclusive: 3.26 µM [activator, single point]	
CC(C)OC(=O)c1cc2c(ccn2C)n1CC(=O)N(Cc1ccccc1)c1ccc(F)cc1		inconclusive: 29.1 µM [falling, single point]	

Later entries

Structure (SMILES)	lipid storage change, negative = inhibition	Potency	outcome
COc1ccc(N2CCN(C(=O)CNC(=O)c3cn(-c4ccccc4OC)c(=O)c4ccccc34)CC2)cc1	inconclusive: 17.8%		
Cc1oncc1-c1csc(-c2ccccc2Cl)n1		inconclusive: 0.116 µM [activator, full curve, poor fit]	
O=C(O)CCN1C(=O)c2ccc(NC(=O)c3ccco3)cc2C1=O	inconclusive: -20.6%		
CC(=O)c1ccc(O)c(CSC2=NCCS2)c1	inconclusive: 12.5%		
COC(=O)CC(=O)CSc1nc(C)cc(C)c1C#N	inconclusive: 19%		
CC1CCCCC1N(C)C1CCN(C(=O)CNC(=O)/C=C/c2cccc(Cl)c2)CC1 (configuration not stated)	inconclusive: -12.9%		
O=C(O)c1cc(-c2ccc3c(c2)OCO3)nc2ccc(Br)cc12		inconclusive: 0.82 µM [cytotoxic, full curve]	
CN(CC(=O)Nc1c(Cl)cccc1Cl)C(=O)c1cc(-c2cccs2)nn1-c1ccccc1	inconclusive		
O=C1CCC(=O)N1c1ccc(NC2CCN(Cc3ccccc3)CC2)c([N+](=O)[O-])c1	inconclusive: -12.9%		
Nc1c(-c2ccccc2)c(CN2CCOCC2)nn1-c1cccc([N+](=O)[O-])c1	inconclusive: 12.1%		
Oc1ccccc1C=NCC(O)c1ccccc1 (configuration not stated)	inconclusive: 172%		
Cc1ccc(S(=O)(=O)N2CCOCC2)cc1NC(=O)CNCc1ccccc1Cl	inconclusive		
COc1ccc(S(=O)(=O)N2CCOCC2)cc1NC(=O)Cc1c(F)cccc1Cl	inconclusive: -31.2%		
Cc1nnc(NC(=O)c2ccc3c(c2)C(=O)N(CCC(C)C)C3=O)s1	inconclusive: -56.7%		
Cc1[nH]nc(N)c1-c1ccccc1		inconclusive: 18.4 µM [activator, single point]	
Cc1cc(/C(N)=N/OC(=O)c2cccc(Cl)c2)no1	inconclusive: 1.73%		
Cc1cccc(NC(=O)c2cc(C)nc3ccccc23)c1		inconclusive: 29.1 µM [activator, single point]	
O=C(C1CCN(S(=O)(=O)c2cccc3nsnc23)CC1)N1CCCc2ccccc21	inconclusive: -30.5%		
CC(C)NC(=O)c1ccccc1S(=O)c1ccccc1C#N (configuration not stated)	inconclusive: 11.3%		
Cc1ccc2cc(CN(Cc3ccco3)C(=O)NCc3ccccc3)c(=O)[nH]c2c1C		inconclusive: 9.2 µM [activator, partial curve]	
FC(F)(F)c1ccc2c(c1)n(Cc1ccccc1)c1[n+]2CCCCC1		inconclusive: 0.0259 µM [falling, full curve, poor fit]	
COc1ccc(NC(=O)CSc2nnc(CC(=O)Nc3ccc(F)cc3)n2C)cc1	inconclusive: -14.4%		
O=Cc1ccc(N2CCCCC2)cc1	inconclusive: -6.25%		
COc1ccc(C(=O)Nc2cnc(NC(=O)c3cccs3)cc2C)cc1	inactive: 25.6%		
Cc1sc2nc(C3CC3)nc(SCC(=O)N3c4ccccc4CC3C)c2c1C (configuration not stated)	inconclusive: 37.6%		
CCOC(=O)c1c(C)[nH]c(C)c1S(=O)(=O)NCCCN1CCOCC1		inconclusive: 3.26 µM [activator, full curve]	

Structure (SMILES)	lipid storage change, negative = inhibition	Potency	outcome
COc1ccc(OCC(=O)Nc2c3c(nn2-c2ccc(OC)cc2)CS(=O)(=O)C3)cc1	inconclusive: 6.1%		
Cc1cc(C)c(C(=O)C(C)OC(=O)Cc2n[nH]c(=O)c3ccccc23)cc1C (configuration not stated)		inconclusive: 18.4 µM [activator, single point]	
O=C(O)Cn1cc2c(n1)CCCCC2	inconclusive: -17.5%		
CCCCN(C(=O)c1ccc(S(=O)(=O)N2CCC(C)CC2)cc1)C1CCS(=O)(=O)C1 (configuration not stated)	inconclusive: 7.41%		
CNC(=S)N/N=C/c1c(C)nn(-c2ccccc2)c1Cl		inconclusive: 0.146 µM [activator, full curve, poor fit]	
CC(C)c1cc(C(=O)N2CCCC(CCC(=O)NCc3ccccc3F)C2)n(C)n1 (configuration not stated)		inconclusive: 8.2 µM [falling, partial curve]	
O=C(c1c(O)c2ccccc2oc1=O)C1CCC1		inconclusive: 29.1 µM [falling, single point]	
Nc1nnnn1/N=C/c1ccco1		inconclusive: 6.51 µM [falling, single point]	
COc1cnc(-c2ccccn2)nc1Oc1c(C)cccc1C			inactive [at 46.1 µM]
COc1ccc(-n2nc(C(=O)NCC(=O)N3CCN(C)CC3)c3ccccc3c2=O)cc1		inconclusive: 29.1 µM [activator, single point]	
O=C(COC(=O)CCC1CCCC1)Nc1ccc(Cl)cn1	inconclusive: 35%		
CCC(=O)c1ccc(N2CCN(C(=O)COc3ccccc3F)CC2)c(F)c1	inconclusive: -10.8%		
CCCN1CCc2c(sc(NC(=O)C3CCN(S(=O)(=O)c4cccs4)CC3)c2C(N)=O)C1	inconclusive		
O=C(NCc1cccc(Cl)c1)C1CCC(=O)N(CC2CCCCC2)C1 (configuration not stated)	inconclusive: 71.9%		
Cc1cc(C)c(N(C(=O)c2csnn2)C(C(=O)NC(C)(C)C)c2ccncc2)c(C)c1 (configuration not stated)		inconclusive: 0.058 µM [falling, full curve, poor fit]	
C/C=N/NC(=O)CCNC(=O)c1ccccc1	inconclusive: 14.1%		
CC1(S(=O)(=O)O)CC(=O)c2ccccc2C1=O (configuration not stated)	inconclusive: -50.2%		
O=C(Nc1cccc(Cl)c1)c1ccc(NCC2CCCO2)c([N+](=O)[O-])c1 (configuration not stated)	inconclusive: -35.2%		
Cn1nnnc1Sc1ncnc2scc(-c3cccc(S(C)(=O)=O)c3)c12	inconclusive: 1.15%		
Cc1ccc(-n2nnnc2SCC(=O)c2cc(C)n(CC3CCCO3)c2C)cc1 (configuration not stated)	inconclusive: 16.4%		
COc1cccc(CNC(=O)CCNC(=O)N2CCn3c2nc2ccccc23)c1	inconclusive: -33.8%		
COc1ccc(CNc2n[nH]c(NCc3ccc(OC)c(OC)c3)n2)cc1OC	inconclusive: 23.3%		
COc1cc(-c2nn3c(-c4ccccn4)nnc3s2)cc(OC)c1OC		inconclusive: 0.651 µM [activator, partial curve, poor fit]	
CC(=O)c1ccc(OCCn2c(SCC(=O)O)nc3ccccc32)cc1	inconclusive: -64.5%		
COc1ccc(C(=O)N/N=C/c2c(CO)cnc(C)c2O)cc1	inconclusive: 5.94%		
